How the values were obtained:
[1] = general procedure: Fmoc solid-phase peptide synthesis; Fmoc-Lys(Boc)-Wang Resin; HBTU / N-Methylmorpholine; conditions: late stage modification step, TFA salt exchanged to AcOH salt by ion exchange resin
[2] = general procedure: Fmoc solid-phase peptide synthesis; Wang resin; HBTU / N-Methylmorpholine; conditions: whole synthesis, scale 1 mmole, TFA salt

Row | Substance | step yield [1] | crude mass [2] | crude yield [2]
1 | Fmoc-Hyp-Gly-Gln-Leu-Gly-Ala-Leu-Gly-Pro-Lys(Dde)-PEG1-NHBoc | 71% | – | –
2 | H-Hyp-Gly-Gln-Leu-Gly-Leu-Ala-Gly-Pro-Lys-OH TFA Salt | – | 1 g | 105%
